In the supplement of paper PMC12819154, “High-throughput peptide-centric local stability assay extends protein–ligand identification to membrane proteins, tissues and bacteria” (Nature Structural & Molecular Biology, 2025):
This is one part of the list. Small differences around the control level are noise.

Chains of the proteins cited; added tags and fusions are not shown. Lines headed by an entry give the natural chain unless they say otherwise; changes in a name come on top.
UniProt Q3V0C5: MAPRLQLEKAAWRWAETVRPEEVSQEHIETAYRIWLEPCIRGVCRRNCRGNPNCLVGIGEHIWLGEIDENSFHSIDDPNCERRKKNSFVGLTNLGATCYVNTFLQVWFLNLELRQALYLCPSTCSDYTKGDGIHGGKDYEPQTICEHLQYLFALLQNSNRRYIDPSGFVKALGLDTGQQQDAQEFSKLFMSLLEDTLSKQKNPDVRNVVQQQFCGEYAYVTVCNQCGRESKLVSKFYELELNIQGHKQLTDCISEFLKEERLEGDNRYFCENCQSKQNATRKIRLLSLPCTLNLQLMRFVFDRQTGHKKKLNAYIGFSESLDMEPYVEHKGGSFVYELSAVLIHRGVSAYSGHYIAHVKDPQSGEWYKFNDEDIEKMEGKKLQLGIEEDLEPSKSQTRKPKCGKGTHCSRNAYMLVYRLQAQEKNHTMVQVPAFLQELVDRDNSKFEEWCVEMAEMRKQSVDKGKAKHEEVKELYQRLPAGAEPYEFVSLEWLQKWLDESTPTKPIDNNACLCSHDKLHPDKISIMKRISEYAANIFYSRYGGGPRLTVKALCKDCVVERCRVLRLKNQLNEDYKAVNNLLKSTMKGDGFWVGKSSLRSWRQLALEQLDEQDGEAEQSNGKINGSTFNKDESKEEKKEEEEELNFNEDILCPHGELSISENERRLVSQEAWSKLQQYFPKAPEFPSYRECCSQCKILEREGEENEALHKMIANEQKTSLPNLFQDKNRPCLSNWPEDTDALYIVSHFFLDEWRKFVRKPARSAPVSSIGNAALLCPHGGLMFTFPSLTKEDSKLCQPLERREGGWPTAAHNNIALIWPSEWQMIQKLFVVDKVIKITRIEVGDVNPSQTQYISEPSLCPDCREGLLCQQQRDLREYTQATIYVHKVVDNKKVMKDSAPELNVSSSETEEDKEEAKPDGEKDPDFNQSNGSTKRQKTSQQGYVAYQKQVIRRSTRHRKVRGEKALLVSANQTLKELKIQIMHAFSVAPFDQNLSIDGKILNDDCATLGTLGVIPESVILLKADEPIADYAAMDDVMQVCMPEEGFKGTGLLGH
UniProt Q3UP75: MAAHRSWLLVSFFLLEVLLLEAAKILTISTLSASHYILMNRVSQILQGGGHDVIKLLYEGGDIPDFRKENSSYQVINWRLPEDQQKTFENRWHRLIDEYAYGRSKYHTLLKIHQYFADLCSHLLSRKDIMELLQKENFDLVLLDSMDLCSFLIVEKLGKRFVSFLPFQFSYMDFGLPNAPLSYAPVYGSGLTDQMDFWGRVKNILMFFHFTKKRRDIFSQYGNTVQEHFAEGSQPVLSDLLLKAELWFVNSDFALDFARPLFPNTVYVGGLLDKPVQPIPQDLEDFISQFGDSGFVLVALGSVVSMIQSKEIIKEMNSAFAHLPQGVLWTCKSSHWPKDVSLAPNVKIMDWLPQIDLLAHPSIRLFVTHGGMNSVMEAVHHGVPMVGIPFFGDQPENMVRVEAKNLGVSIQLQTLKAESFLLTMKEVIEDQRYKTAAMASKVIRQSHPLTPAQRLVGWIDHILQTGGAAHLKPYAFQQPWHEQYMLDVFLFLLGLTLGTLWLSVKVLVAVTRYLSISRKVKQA
UniProt Q3UJZ3: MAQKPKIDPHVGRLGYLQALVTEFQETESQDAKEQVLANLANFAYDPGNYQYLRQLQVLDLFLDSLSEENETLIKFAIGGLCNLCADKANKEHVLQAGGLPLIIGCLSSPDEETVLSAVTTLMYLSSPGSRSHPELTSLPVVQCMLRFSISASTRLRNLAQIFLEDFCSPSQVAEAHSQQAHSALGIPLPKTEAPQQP
UniProt Q3UYC0: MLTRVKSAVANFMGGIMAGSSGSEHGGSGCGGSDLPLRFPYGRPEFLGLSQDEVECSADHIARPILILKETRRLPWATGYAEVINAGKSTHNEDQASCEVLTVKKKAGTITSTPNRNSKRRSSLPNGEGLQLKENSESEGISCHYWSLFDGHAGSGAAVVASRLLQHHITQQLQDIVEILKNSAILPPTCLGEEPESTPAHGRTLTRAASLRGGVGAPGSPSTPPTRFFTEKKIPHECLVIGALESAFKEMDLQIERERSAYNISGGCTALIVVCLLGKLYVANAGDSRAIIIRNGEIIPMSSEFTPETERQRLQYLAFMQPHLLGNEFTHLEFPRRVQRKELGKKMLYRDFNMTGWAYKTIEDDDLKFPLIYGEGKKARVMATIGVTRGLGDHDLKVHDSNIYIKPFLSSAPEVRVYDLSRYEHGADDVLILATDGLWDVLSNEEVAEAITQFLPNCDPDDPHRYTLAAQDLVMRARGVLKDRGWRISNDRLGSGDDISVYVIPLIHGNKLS
UniProt Q3UGC7, whole entry: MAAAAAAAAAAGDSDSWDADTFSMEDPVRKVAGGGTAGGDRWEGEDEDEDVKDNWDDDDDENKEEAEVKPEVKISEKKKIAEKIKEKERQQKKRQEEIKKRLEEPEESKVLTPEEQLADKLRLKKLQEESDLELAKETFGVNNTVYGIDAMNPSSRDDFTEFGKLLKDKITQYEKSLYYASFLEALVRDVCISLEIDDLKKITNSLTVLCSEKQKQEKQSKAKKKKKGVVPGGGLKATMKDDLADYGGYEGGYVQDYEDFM
UniProt Q4FZF3: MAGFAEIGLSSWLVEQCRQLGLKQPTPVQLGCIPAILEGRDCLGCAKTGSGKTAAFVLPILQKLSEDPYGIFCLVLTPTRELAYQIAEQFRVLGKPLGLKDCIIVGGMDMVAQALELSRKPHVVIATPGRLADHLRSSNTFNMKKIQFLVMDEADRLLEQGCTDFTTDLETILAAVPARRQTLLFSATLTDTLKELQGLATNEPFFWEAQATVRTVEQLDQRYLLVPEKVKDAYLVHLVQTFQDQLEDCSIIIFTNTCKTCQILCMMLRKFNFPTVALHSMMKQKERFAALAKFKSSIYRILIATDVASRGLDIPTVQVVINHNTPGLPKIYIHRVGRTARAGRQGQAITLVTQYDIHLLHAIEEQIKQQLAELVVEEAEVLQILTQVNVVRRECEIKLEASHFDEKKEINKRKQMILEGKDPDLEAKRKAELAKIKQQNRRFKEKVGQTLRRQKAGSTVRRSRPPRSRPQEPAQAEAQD
UniProt Q3UMM4: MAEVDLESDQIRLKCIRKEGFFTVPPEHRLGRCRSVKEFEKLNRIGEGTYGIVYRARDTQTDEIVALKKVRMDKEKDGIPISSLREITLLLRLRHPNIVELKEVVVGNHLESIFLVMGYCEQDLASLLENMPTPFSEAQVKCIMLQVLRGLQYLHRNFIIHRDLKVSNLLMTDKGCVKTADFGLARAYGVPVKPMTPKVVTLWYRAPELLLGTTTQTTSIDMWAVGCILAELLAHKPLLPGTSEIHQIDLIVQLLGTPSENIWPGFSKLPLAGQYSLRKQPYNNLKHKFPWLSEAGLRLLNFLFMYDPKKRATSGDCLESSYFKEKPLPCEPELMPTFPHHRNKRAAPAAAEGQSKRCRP
UniProt Q5DU05: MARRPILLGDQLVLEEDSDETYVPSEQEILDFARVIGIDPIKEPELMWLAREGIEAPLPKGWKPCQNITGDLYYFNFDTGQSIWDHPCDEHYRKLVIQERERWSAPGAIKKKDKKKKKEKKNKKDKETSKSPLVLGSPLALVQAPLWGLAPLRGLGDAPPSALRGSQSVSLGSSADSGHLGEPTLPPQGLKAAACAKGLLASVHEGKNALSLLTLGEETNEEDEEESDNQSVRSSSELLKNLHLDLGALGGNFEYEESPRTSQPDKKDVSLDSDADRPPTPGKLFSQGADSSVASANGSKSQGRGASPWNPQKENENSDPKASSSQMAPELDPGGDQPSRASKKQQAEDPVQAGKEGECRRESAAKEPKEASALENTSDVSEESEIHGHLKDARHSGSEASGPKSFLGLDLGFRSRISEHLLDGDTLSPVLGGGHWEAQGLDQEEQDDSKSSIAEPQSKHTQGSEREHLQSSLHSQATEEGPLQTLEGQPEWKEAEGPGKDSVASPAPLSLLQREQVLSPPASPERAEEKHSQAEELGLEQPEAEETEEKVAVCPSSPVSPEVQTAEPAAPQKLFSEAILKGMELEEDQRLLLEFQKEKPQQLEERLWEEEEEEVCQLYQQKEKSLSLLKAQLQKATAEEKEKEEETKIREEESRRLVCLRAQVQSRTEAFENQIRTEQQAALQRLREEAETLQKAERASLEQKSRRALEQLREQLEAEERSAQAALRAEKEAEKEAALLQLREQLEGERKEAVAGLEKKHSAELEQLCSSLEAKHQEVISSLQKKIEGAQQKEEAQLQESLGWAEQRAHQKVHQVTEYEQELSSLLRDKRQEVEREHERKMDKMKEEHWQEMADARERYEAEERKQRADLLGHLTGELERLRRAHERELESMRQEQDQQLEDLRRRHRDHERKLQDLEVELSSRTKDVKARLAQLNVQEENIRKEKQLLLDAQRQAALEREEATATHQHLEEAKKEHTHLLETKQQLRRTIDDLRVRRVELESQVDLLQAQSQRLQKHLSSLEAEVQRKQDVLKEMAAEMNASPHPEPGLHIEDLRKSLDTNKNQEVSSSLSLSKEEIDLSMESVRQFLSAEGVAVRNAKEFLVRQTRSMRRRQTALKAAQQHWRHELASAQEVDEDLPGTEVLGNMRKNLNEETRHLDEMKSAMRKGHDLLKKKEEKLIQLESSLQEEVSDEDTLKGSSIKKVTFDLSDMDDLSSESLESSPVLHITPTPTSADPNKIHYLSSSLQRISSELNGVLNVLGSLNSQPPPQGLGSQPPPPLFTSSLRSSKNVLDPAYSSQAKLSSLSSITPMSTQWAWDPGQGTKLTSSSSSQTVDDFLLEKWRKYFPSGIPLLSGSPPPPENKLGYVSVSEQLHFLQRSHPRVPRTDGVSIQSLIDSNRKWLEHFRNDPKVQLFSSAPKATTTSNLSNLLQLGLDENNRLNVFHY
UniProt Q3UMB5: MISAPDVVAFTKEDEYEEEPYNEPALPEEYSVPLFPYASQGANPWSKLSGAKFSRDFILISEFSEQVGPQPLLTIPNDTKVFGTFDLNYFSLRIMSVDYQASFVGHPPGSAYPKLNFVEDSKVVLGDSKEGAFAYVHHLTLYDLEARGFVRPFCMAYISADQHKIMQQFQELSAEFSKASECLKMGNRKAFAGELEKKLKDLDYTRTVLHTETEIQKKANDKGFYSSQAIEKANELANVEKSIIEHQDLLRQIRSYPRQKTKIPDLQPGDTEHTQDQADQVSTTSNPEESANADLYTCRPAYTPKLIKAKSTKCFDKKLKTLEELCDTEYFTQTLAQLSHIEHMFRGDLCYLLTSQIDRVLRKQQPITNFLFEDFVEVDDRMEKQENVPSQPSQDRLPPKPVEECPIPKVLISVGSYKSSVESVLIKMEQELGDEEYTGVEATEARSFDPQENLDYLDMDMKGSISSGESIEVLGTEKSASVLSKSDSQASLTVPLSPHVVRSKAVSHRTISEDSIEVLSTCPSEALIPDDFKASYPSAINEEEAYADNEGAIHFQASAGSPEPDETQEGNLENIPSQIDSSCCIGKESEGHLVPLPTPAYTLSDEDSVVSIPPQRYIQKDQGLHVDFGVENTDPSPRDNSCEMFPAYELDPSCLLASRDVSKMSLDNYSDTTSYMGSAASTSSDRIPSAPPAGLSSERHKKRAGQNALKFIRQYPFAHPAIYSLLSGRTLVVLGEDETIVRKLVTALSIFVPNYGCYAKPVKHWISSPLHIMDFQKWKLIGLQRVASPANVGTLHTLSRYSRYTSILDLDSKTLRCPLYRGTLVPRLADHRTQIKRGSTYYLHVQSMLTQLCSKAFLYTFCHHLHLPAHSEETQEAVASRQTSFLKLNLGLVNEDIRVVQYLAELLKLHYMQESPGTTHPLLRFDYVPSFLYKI
UniProt Q3UXL4: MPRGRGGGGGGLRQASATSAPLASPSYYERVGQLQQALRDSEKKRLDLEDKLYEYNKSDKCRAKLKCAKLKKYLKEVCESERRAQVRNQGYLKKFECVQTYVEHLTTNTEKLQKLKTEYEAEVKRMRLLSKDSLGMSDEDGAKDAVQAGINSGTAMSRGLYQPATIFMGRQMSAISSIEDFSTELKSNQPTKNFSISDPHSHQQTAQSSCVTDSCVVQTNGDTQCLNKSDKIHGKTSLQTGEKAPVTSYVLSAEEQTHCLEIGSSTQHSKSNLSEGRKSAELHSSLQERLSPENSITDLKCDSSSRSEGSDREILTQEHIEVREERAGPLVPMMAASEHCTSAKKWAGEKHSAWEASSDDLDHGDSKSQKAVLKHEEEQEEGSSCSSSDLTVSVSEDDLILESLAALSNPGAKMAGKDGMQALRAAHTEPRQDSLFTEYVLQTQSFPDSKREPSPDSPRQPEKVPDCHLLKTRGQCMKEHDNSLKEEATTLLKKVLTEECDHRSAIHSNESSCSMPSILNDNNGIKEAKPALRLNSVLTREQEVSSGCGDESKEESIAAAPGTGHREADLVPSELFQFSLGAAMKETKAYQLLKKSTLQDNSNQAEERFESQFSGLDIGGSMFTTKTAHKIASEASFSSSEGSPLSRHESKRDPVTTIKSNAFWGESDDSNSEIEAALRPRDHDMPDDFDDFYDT

These targets were tested with CN[C@@H]1C[C@H]2O[C@@](C)([C@@H]1OC)n1c3ccccc3c3c4c(c5c6ccccc6n2c5c31)C(=O)NC4 [staurosporine] (assay: log2 fold change of tryptic peptide abundance, ligand vs vehicle (limited proteolysis) (log2 ratio); higher = more trypsin-susceptible (destabilized)). Conditions: ligand concentration: 20 uM; sample: mouse liver crude lysate; replicate design: treated separately.
“UniProt Q3UM18 (peptide sequence: ADLLTAEQR, peptide start residue: 214)” was tested, and the log2 fold change was -0.492.
“UniProt Q3UIK4 (peptide sequence: ASYDTSAPNSK, peptide start residue: 53)” showed a log2 fold change of 0.158.
“UniProt Q3V0C5 (peptide sequence: ALCKDCVVER, peptide start residue: 551)” gave a log2 fold change of -0.598.
“UniProt Q3UP75 (peptide sequence: DVSLAPNVK, peptide start residue: 339)” showed a log2 fold change of -0.136.
Target “UniProt Q3UJZ3 (peptide sequence: FSISASTR, peptide start residue: 148)” has a log2 fold change of 0.401.
With “UniProt Q3UYC0 (peptide sequence: GGVGAPGSPSTPPTR, peptide start residue: 213)” the log2 fold change was 0.02.
Work on “UniProt Q3UGR5 (peptide sequence: TFFLEALR, peptide start residue: 183)” yielded a log2 fold change of -0.401.
“UniProt Q3UGC7 (peptide sequence: LLKDKITQYEK, peptide start residue: 165)” was tested, and the log2 fold change was -0.423.
With “UniProt Q571K4 (peptide sequence: TLVHSSSDGHIDPQHTAGK, peptide start residue: 97)” the log2 fold change was 0.556.
With “UniProt Q4FZF3 (peptide sequence: ILIATDVASR, peptide start residue: 301)” the log2 fold change was 0.395.
“UniProt Q3UJV1 (peptide sequence: FDPTAFVK, peptide start residue: 341)” was tested, and the log2 fold change was 0.265.
“UniProt Q3UEI1 (peptide sequence: VREPVDSGVAPVSPLGGGVILRR, peptide start residue: 16)” gave a log2 fold change of -0.426.
For “UniProt Q3UHA3 (peptide sequence: LCLLSQVLK, peptide start residue: 1628)”, the log2 fold change was 0.238.
In the case of “UniProt Q3UQ44 (peptide sequence: VNVNLLIYLLNKK, peptide start residue: 1559)”, the log2 fold change is reported as 0.823.
“UniProt Q3V0C1 (peptide sequence: ISHFESEIHAQNVK, peptide start residue: 105)” showed a log2 fold change of 0.416.
For “UniProt Q3UMM4 (peptide sequence: IGEGTYGIVYR, peptide start residue: 45)”, the log2 fold change was -0.49.
Work on “UniProt Q3URD3 (peptide sequence: AKESDLSDTLSPSKEK, peptide start residue: 459)” yielded a log2 fold change of -0.196.
Work on “UniProt Q3UJB9 (peptide sequence: ETCSTLTESPR, peptide start residue: 841)” yielded a log2 fold change of -0.351.
“UniProt Q3ULA2 (peptide sequence: LANGTSSMIVPK, peptide start residue: 111)” gave a log2 fold change of 0.176.
Work on “UniProt Q5DU37 (peptide sequence: VLSEAQWR, peptide start residue: 722)” yielded a log2 fold change of -0.283.
With “UniProt Q4U4S6 (peptide sequence: SKGNYDEGFGHK, peptide start residue: 446)” the log2 fold change was -0.139.
With “UniProt Q3UDK1 (peptide sequence: THPEVCGR, peptide start residue: 130)” the log2 fold change was -0.325.
With “UniProt Q5DU05 (peptide sequence: TEQQAALQR, peptide start residue: 677)” the log2 fold change was -0.676.
In the case of “UniProt Q3UMB5 (peptide sequence: SIIEHQDLLR, peptide start residue: 242)”, the log2 fold change is reported as 0.224.
“UniProt Q3UZA1 (peptide sequence: ETPASKPTR, peptide start residue: 36)” showed a log2 fold change of -0.201.
Target “UniProt Q501J2 (peptide sequence: AGCSASVCYHR, peptide start residue: 121)” has a log2 fold change of 0.884.
“UniProt Q3UXL4 (peptide sequence: VGQLQQALR, peptide start residue: 31)” was tested, and the log2 fold change was -0.285.
With “UniProt Q3UHR0 (peptide sequence: ASLASCAGGMLGR, peptide start residue: 295)” the log2 fold change was 0.0153.
“UniProt Q504N7 (peptide sequence: VKIADLMEDKFPK, peptide start residue: 45)” showed a log2 fold change of -0.546.
With “UniProt Q4G5Y1 (peptide sequence: HLLHSVNQR, peptide start residue: 389)” the log2 fold change was 0.187.
“UniProt Q499D0 (peptide sequence: DALGDSGYASQHK, peptide start residue: 374)” gave a log2 fold change of 0.276.
With “UniProt Q3V3R4 (peptide sequence: FSIAILGHYNR, peptide start residue: 305)” the log2 fold change was 0.357.
“UniProt Q3UJU9 (peptide sequence: SYALNGKEEAEAALKK, peptide start residue: 300)” gave a log2 fold change of -0.319.
“UniProt Q3UPF5 (peptide sequence: AQLSSVSSK, peptide start residue: 303)” was tested, and the log2 fold change was -0.144.
“UniProt Q4QRL3 (peptide sequence: RTEAEAHQEAEAQAR, peptide start residue: 779)” showed a log2 fold change of 1.
Work on “UniProt Q3V0J1 (peptide sequence: FTAPTGVSQPVGK, peptide start residue: 188)” yielded a log2 fold change of -0.284.
